The nature of the assay: qHTS Assay for Lipid Storage Modulators in Drosophila S3 Cells.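 As to cell number change: cells counted by Cell Tracker Red CMTPX staining in the red channel.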 To be noted: BODIPY lipid droplet fluorescence, 18-24 h; for cell number change: measured here: cell count max response, cells fed with added oleic acid. The gist of the method: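 Drosophila S3 cells got compounds at several concentrations plus oleic acid (400 uM solution). Laser-scanning cytometry with 488 nm excitation read lipid droplets at 500-530 nm and cells at 575-640 nm. Percent activity was relative to 20 uM Triacsin C.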
(In general: qHTS replaces the single test concentration by a dilution series.)

Where [1] appears, read: measured here: cell number channel AC50, cells fed with added oleic acid.
Setting [2] is: measured here: lipid fluorescence (Fed channel) AC50, cells fed with added oleic acid.

The other results are listed elsewhere or left out. Shown are side measurements of this screen, not its main read-out; they come without a call. Most of these compounds were active or inconclusive in the main read-out, so they are no random draw. Potencies come from curve fits of mixed quality, noted in brackets.

Regarding `O=c1ccc2c(-c3ccccc3S(=O)(=O)O)c3ccc(O)c(O)c3oc-2c1O`, the cell number change was -82.4%. Also, the AC50 under setting [1] was 18.4 µM [falling, partial curve].
Turning to `CC(C)CC1NC2(C(=O)N(C)c3ccccc32)C2C(=O)N(C(C)C)C(=O)C12` (centres undefined), the concentration at half-maximal activity (AC50) under setting [2] is 6.51 µM [falling, single point].
With `Cc1cccc(Oc2ccc(N)cc2)c1`, the cell number change amounted to 23.8%. In addition, the AC50 under setting [1] is 0.58 µM [rising, full curve, poor fit].
With `N#C/C(=C\c1sc(N2CCOCC2)nc1-c1ccccc1)C(=O)Nc1cccc2ccccc12`, the cell number change stood at 10.2%. Further, the AC50 under setting [2] was 25.9 µM [rising, partial curve].
Regarding `COc1ccccc1CNC(=O)c1cnccn1`, the cell number change is -26.5%. The AC50 under setting [2] was 20.6 µM [falling, partial curve].
As to `CCCn1nc(C(=O)OCC(=O)Nc2cccc(OC)c2)c2ccccc2c1=O`, the cell number change is 11.7%. Also, the AC50 under setting [2] is 12.6 µM [rising, partial curve, poor fit].
For the compound `COc1ccc(OCC(O)CN(CCO)CC(O)Cn2ccc3ccccc32)cc1` (centres undefined), the cell number change was -2.9%. Further, under setting [2], the AC50 was 0.103 µM [falling, full curve, poor fit].
In the case of `COc1cc(C(=O)OCc2cccc(OC)c2OC)ccc1OCC(=O)N1CCOCC1`, the cell number change was -1.04%. The concentration at half-maximal activity (AC50) under setting [2] was 4.11 µM [rising, single point].
Take `CCOC(=O)N1CCN(CCC(=O)c2ccc(Br)cc2)CC1`: the cell number change was -39.5%. Also, the AC50 under setting [1] is 23.1 µM [falling, single point]. Besides, the AC50 under setting [2] was 29.1 µM [falling, single point].
For the compound `COc1ccc(-c2nc(=S)c3c([nH]2)Oc2ccc(C)cc2C3)cc1O`, the cell number change is -12.9%. Besides, the AC50 under setting [2] is 29.1 µM [falling, single point].
For the compound `c1ccc(C[C@H]2CNCCN2CC2CCCCC2)cc1`, the AC50 under setting [2] was 0.326 µM [falling, single point].
`O=C1CCN(Cc2ccccc2)CCN1[C@H](COc1ccccc1)Cc1ccccc1`: the cell number change turned out to be 2.1%.
`COc1ccc(C(=O)NCCCCCC(=O)N/N=C/c2ccco2)cc1OC`: the cell number change came to 13.9%. Also, under setting [2], the AC50 is 9.2 µM [rising, single point].
Consider `CN(C(=O)COC(=O)c1ccc2c(=O)n3c(nc2c1)CCC3)C1CCS(=O)(=O)C1` (centres undefined), for which the cell number change was determined as 7.17%.
With `Cc1cc(C)n2nc(C(=O)N3CCCC(Nc4ccc(F)c(F)c4)C3)cc2n1` (centres undefined), the cell number change is -11.4%. Also, the half-maximal activity concentration (AC50) under setting [2] was 32.6 µM [falling, single point].
On to `COc1ccccc1-c1coc2cc(O)cc(O)c2c1=O`, for which the cell number change is 22.9%.
Turning to `CCOC(=O)c1c2ccc(OCC(=O)N/N=C/c3ccc(C)cc3)cc2n2ccccc12`, the cell number change stood at 118%.
Take `CC(C)[C@H](NC(N)=O)C(=O)Nc1ccc(F)c(Cl)c1`: the cell number change was 26.9%. For the same compound, the AC50 under setting [1] was 1.84 µM [falling, partial curve]. The AC50 under setting [2] was 29.1 µM [rising, single point].
Take `O=C(O)COc1ccc(/C=C/C(=O)c2ccc(C3CCCCC3)cc2)cc1`: the cell number change is -5.26%.
On to `CCOC(=O)C1CCN(S(=O)(=O)c2ccc(CN3C(=O)c4cccnc4C3=O)cc2)CC1`, for which the cell number change worked out at 4.86%. Moreover, the AC50 under setting [1] was 0.731 µM [rising, single point].
In the case of `O=C(c1cc(-c2cccs2)on1)N1CCN(c2ccccc2)CC1`, the cell number change was 1.48%. The AC50 under setting [2] is 0.82 µM [falling, full curve, poor fit].
In the case of `Cc1ccc([C@@H]2[C@@H]3C(=O)N(C)C(=O)[C@@H]3[C@]3(C)C(=O)N(Cc4ccccc4)CC(=O)N23)o1`, the cell number change was found to be 3.29%. In addition, the AC50 under setting [2] is 29.1 µM [rising, single point].
Regarding `Nc1ncnc2c1ncn2[C@@H]1O[C@H](COP(=O)(O)O)[C@@H](O)[C@H]1O`, the cell number change is -21%. For the same compound, the half-maximal activity concentration (AC50) under setting [2] was 0.82 µM [falling, full curve, poor fit].
Take `O=C(Cc1ccccc1)N1CCN(S(=O)(=O)c2ccc([N+](=O)[O-])cc2)CC1`: the cell number change was found to be 17.2%.
In the case of `Cn1cccc1C(=O)OCC(=O)NC1CCS(=O)(=O)C1` (centres undefined), the half-maximal activity concentration (AC50) under setting [1] is 0.13 µM [falling, full curve, poor fit] and the concentration at half-maximal activity (AC50) under setting [2] was 0.13 µM [falling, full curve, poor fit].
`Cc1ccc(NC(=O)CSCC(=O)Nc2ccc(S(=O)(=O)N3CCOCC3)cc2)cc1`: the AC50 is 0.13 µM [rising, full curve, poor fit] under setting [1] and 11.6 µM [rising, partial curve] under setting [2].
With `COc1ccc2cc(C#N)c(N3CCOCC3)nc2c1`, the cell number change is -8.99%.
Turning to `C=CCn1c(SCc2nnc(-c3ccccc3)o2)nnc1C(O)c1ccccc1` (centres undefined), under setting [2], the half-maximal activity concentration (AC50) is 6.51 µM [rising, partial curve].
For the compound `COc1cc(OC)cc(C(=O)NCC(=O)OCc2ccc(Cl)c(Cl)c2)c1`, the cell number change was -6.74%.
Consider `CN(C)CCN(C(=O)c1ccc(S(=O)(=O)N(C)C)cc1)c1nc2cc3c(cc2s1)OCCO3`, for which the cell number change worked out at 16%. Besides, under setting [1], the AC50 is 5.8 µM [falling, single point]. Further, the AC50 under setting [2] was 6.51 µM [falling, single point].
Turning to `Cc1ccc(C(=O)Nc2nnc(S(=O)(=O)Nc3ccccc3C)s2)cc1C`, the cell number change was determined as 21.9%. Further, under setting [2], the AC50 is 0.731 µM [rising, single point].
On to `O=C(NCCN1CCCC1)c1cc(-c2ccncc2)nc2ccc(S(=O)(=O)N3CCOCC3)cc12`, for which the cell number change was -1.56%. Moreover, the AC50 under setting [2] was 6.51 µM [rising, full curve, poor fit].
For `COC(=O)C1=CN(C)C=C(C(=O)OC)C1c1ccc(Cl)cc1Cl`, the cell number change was -104%. The half-maximal activity concentration (AC50) under setting [1] is 2.59 µM [falling, full curve]. The AC50 under setting [2] was 9.2 µM [falling, partial curve].
Take `CCOc1ccc(CN2C(=O)c3ccccc3Sc3ccc(C(=O)NCCCN4CCOCC4)cc32)cc1`: the cell number change turned out to be 43.4%. Further, the AC50 under setting [1] is 0.164 µM [rising, full curve, poor fit].
With `Cn1c(=O)c2c(nc(Br)n2CCSc2ncccn2)n(C)c1=O`, the cell number change is -15.1%. For the same compound, the AC50 under setting [2] was 0.731 µM [rising, single point].
As to `C/C(=N\NC(=O)c1ccc([N+](=O)[O-])c(C)c1)c1ccccc1Cl`, the cell number change was found to be 16.3%. Further, the AC50 under setting [2] is 10.3 µM [falling, partial curve, poor fit].
On to `COCc1ccc(-c2ccc3c(c2)c(C#Cc2ccsc2)c(-c2cc(OC)cc(OC)c2)n3C)cc1`, for which the cell number change is -20.5%. The AC50 under setting [2] was 7.31 µM [rising, single point].
Regarding `COc1ccccc1C(=O)NCc1ccc2c(c1)OCO2`, the AC50 was 0.411 µM [rising, full curve, poor fit] under setting [1] and 0.0731 µM [rising, partial curve, poor fit] under setting [2].

One may read the AC50 as the concentration at which the activity in the assay is half-maximal. A high value points to activity only at high concentration.

The values above are taken from PubChem BioAssay AID2685 (National Center for Advancing Translational Sciences (NCATS), 2010).
